Measurements as given in PubChem BioAssay AID2685 (National Center for Advancing Translational Sciences (NCATS), 2010).
Screen size: about 320,000 compounds; about 2,100 (0.66%) were called active. This list was built around the results that the source calls inconclusive (neither active nor inactive); the mix of calls is not that of the screen. The call rests on the fitted dose curve; in most records, active means well fitted inhibition curve with a large enough effect in the signal ratio, with a control signal flat (not every such curve was filed as active); inconclusive means small, poorly fitted or top-dose-only effect, or effect the other way, or a change in a side signal; inactive means flat fitted curve, though single readings scatter; the % refers to the signal ratio. Where the call is inconclusive, the potency comes from a doubtful curve fit.

Experiment: qHTS Assay for Lipid Storage Modulators in Drosophila S3 Cells
Conditions: BODIPY lipid droplet fluorescence, 18-24 h, cells fed with added oleic acid; lipid storage change, negative = inhibition: at 46.1 µM (top of the series) unless noted
How it was run: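 Drosophila S3 cells loaded with oleic acid (400 uM, as added) and compounds at several concentrations; lipid droplets imaged by 488-nm laser-scanning cytometry, 500–530 nm intensity and object ratio to cell channel. Percent activity normalized to 20 uM Triacsin C.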
On the % scale 0 is the no-effect control and ±100 the full control effect; potency means the concentration at half of the fitted maximal effect.

Compound | Potency | lipid storage change, negative = inhibition
O=C(NCc1ccccc1)Nc1cccn(Cc2ccccc2Cl)c1=O | inconclusive: 29.1 µM [falling, single point] | –
CCOC(=O)c1ccc(NC(=S)NC(=O)c2nn(CC)cc2Br)cc1 | – | inconclusive: -17.5%
Cc1cccc(N2C(=O)/C(=C\c3ccc(OC(F)F)cc3)c3ccccc3C2=O)c1 | – | inconclusive: -25.7%
O=C(c1ccc(S(=O)(=O)N2CCCC2)cc1)N1CCCCC1 | inconclusive: 16.4 µM [falling, single point] | –
COc1ccc(C(O)(C(=O)NNc2ccc(C)cc2)c2cccs2)cc1 (stereo not given) | active: 32.6 µM | –
CCNc1c(NS(=O)(=O)c2ccc([N+](=O)[O-])cc2)c(=O)oc2ccccc12 | – | inconclusive: -13.8%
O=C1CC(SCc2nc3ccccc3[nH]2)C(=O)N1c1ccc(Cl)cc1 (stereo not given) | inconclusive: 1.46 µM [falling, partial curve] | –
Cc1ccc(Cl)c(NC(=O)COC(=O)c2nn(C)c(=O)c3ccccc23)c1Cl | – | inconclusive: 12.4%
O=C(COC(=O)C1CCCCC1)Nc1cccc(Br)c1 | – | inconclusive: 7.16%
COc1ccc(S(=O)(=O)N(C)C)cc1NC(=O)c1ccc(OCC(=O)N2CCOCC2)c(OC)c1 | – | inconclusive: 20.3%
Cc1cc2ccccc2n2c(SCC(=O)NCC3CCCO3)nnc12 (stereo not given) | – | inconclusive: 5.13%
CCc1ccccc1NC(=O)NCc1ccccn1 | inconclusive: 0.651 µM [activator, partial curve, poor fit] | –
Cc1cccc(COc2ncnc3nc[nH]c23)c1 | – | inconclusive: -2.07%
CCNc1nc(NC(N)=S)nc(NC(C)(C)C)n1 | – | inconclusive: 17.6%
COC(=O)C1CN(C(=O)c2ccc(OC(F)F)cc2)c2ccccc2O1 (stereo not given) | – | inconclusive: 114%
Cc1cc(OC(=O)c2ccc(Cl)cc2Cl)nc(C)n1 | inconclusive: 10.3 µM [falling, partial curve] | –
COc1ccccc1CC(NC(C)=O)C(=O)NC1CCN(C(=O)Nc2ccc(F)cc2)CC1 (stereo not given) | – | inconclusive: 20.2%
COc1cccc(N2CCN(S(=O)(=O)c3ccc4ccccc4c3)CC2)c1 | inconclusive: 6.51 µM [falling, single point] | –
CC(=O)Nc1ccc(S(=O)(=O)Nc2cc3c(cc2C(C)=O)OCO3)cc1 | – | inconclusive: -13.3%
COc1ccccc1CN1CCN(Cc2nc(-c3ccc(C)cc3)oc2C)CC1 | – | inconclusive: -0.522%

Sorted by number of heavy atoms (ascending): part of the list above.
Compound | Potency | lipid storage change, negative = inhibition
CCNc1nc(NC(N)=S)nc(NC(C)(C)C)n1 | – | inconclusive: 17.6%
CC(=O)Nc1ccc(S(=O)(=O)Nc2cc3c(cc2C(C)=O)OCO3)cc1 | – | inconclusive: -13.3%
CCNc1c(NS(=O)(=O)c2ccc([N+](=O)[O-])cc2)c(=O)oc2ccccc12 | – | inconclusive: -13.8%

Remaining list, next part

Compound | Potency | lipid storage change, negative = inhibition
NC(=O)CCN(Cc1ccccc1)S(=O)(=O)c1ccccc1 | – | inconclusive: 1.19% [cytotoxic]
Clc1ccccc1Nc1nnc(-c2ccncc2)s1 | – | inconclusive: 6.17%
NC(=O)C1CCN(C(=O)c2cccc(S(=O)(=O)N3CCCC3)c2)CC1 | – | inconclusive: -16.4%
Cc1cc(C)nc(NN2C(=O)C=CC2=O)n1 | inconclusive: 29.1 µM [cytotoxic, single point] | –
COc1ccc(C(=O)NC(CO)c2nnc(SCc3ccc(Cl)c(Cl)c3)n2C)cc1 (stereo not given) | – | inconclusive: -12.4%
Cc1ccc(S(=O)(=O)N2CCOCC2)cc1C(=O)NCCN1C(=O)S/C(=C\c2ccccc2Cl)C1=O | – | inconclusive: -28.2%
CCOc1ccc(N(CC(=O)OC)S(=O)(=O)c2ccc(OC)c(OC)c2)cc1 | inconclusive: 1.64 µM [activator, partial curve] | –
COc1ccc(C(=O)N/N=C/c2cn[nH]c2-c2ccc(OC)cc2OC)cc1 | inconclusive: 7.31 µM [activator, partial curve] | –
NC(=O)c1ccc(NC(=O)COC(=O)c2cc([N+](=O)[O-])ccc2N2CCOCC2)cc1 | – | inconclusive: -2.5%
CCn1cc(CNC(=O)/C=C/c2ccc([N+](=O)[O-])cc2)c(C)n1 | inconclusive: 32.6 µM [falling, single point] | –
COc1ccc(C(C)NC(=O)CC23CC4CC(CC(C4)C2)C3)cc1 (stereo not given) | – | inconclusive: -58.8%
Cc1ccc(OCC(=O)Nc2ccncc2)c(C)c1 | – | inconclusive: -100%
O=C(OCc1c(Cl)nc2sccn12)c1cc2c(s1)CCCC2 | – | inconclusive: -139%
CCOC(=O)c1sc(NC(=O)CSc2nccc(C)n2)nc1C | – | inconclusive: 68.1%
COc1ccc(CN(CC2CCCO2)C(=O)c2cc3sccc3n2C)c(OC)c1 (stereo not given) | – | inconclusive: 28.2%
Cc1cc(N2C(=O)C(O)=C(C(=O)c3ccco3)C2c2ccccc2F)no1 (stereo not given) | – | inconclusive: -43.7%
Cc1ccc(CNC(=O)CSc2ncc(C(=O)Nc3ccccc3)c(=O)n2C)cc1 | – | inconclusive
O=C(Nc1ccc2c(c1)OCCO2)c1cc(F)c(F)cc1Cl | – | inconclusive: 119%
O=C(NC1CCCCC1)C1CCCN(S(=O)(=O)c2cccs2)C1 (stereo not given) | – | inconclusive: -23.7%
CCOC(CNC(=O)C(=O)Nc1cc2c3c(c1)CCC(=O)N3CCC2)OCC | – | inconclusive: 21.2%
